No constants are given. Whether binding was seen depends on the method and setting.

Test [1] addresses T1, BRD^Baz2B A2149V (human) (UniProt Q9UIF8).
T1 sequence (chain, fluorescent label (Monolith NT Protein Labelling Kit RED-NHS)): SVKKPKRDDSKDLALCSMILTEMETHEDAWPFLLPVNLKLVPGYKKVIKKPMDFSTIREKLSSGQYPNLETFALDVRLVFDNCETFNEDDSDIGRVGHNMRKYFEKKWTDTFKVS
Kind of test: MST; 100 nM fluorescently labelled (RED-NHS) BRD^Baz2B, peptide (H3 or H3K14ac) titrated; MST buffer 150 mM Tris-HCl, 50 mM NaCl, 10 mM MgCl2, pH 7.6, 0.0025% Pluronic, 200 ng/ul BSA; 25 C, 20% MST power; at least triplicate; both purified.

For test [2], the target named is T2, BRD^Baz2B F2107V (human) (UniProt Q9UIF8).
T2 sequence (chain, fluorescent label (Monolith NT Protein Labelling Kit RED-NHS)): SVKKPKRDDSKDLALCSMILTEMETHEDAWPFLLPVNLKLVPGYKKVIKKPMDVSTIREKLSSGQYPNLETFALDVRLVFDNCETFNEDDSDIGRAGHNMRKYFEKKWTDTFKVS
The description is as above.

B1: H3 peptide (Ac-…-NH2) (peptide)
peptide: TARKSTGGKAPRKQL
modifications: N-terminal acetyl; C-terminal amide
Consider B1, for which the binding entry in test [1] and in test [2] was “no binding” in each case.

For the origin of these results see paper PMC10783490, “Biochemical and cellular insights into the Baz2B protein, a non-catalytic subunit of the chromatin remodeling complex” (Nucleic Acids Research, 2023).
